# Some of these results come from one statement about several compounds together.
# Test system: human NaV1.3 or human NaV1.7 channels
# Experiment: NaV1.3 FRET or NaV1.7 FRET Assays (result not assigned to one channel)
# Assay type: cell-based
# Settings: which one not given
row,SMILES,IC50 [µM]
1,"C[C@@H](NC(=O)[C@@H]1C[C@H]1c1ccc2cc[nH]c2c1)c1ccc(OCC(F)(F)F)cn1 (relative stereo) [Example 204, (1R*,2R*)-2-(1H-indol-6-yl)-N-((R)-1-(5-(2,2,2-trifluoroethoxy)pyridin-2-yl)ethyl)cyclopropanecarboxamide]",≤ 1
2,"C[C@@H](NC(=O)[C@@H]1C[C@H]1c1cc2ccccc2[nH]1)c1cnc(OCC(F)(F)F)cn1 (relative stereo) [Example 226, (1R*,2R*)-2-(1H-indol-2-yl)-N-((R)-1-(5-(2,2,2-trifluoroethoxy)pyrazin-2-yl)ethyl)cyclopropanecarboxamide]",≤ 1
3,"C[C@@H](NC(=O)[C@H]1C[C@@H]1c1ccc(F)cc1Cl)c1ccc(OCC(F)(F)F)cn1 (relative stereo) [Example 246, (1S*,2S*)-2-(2-chloro-4-fluorophenyl)-N-((R)-1-(5-(2,2,2-trifluoroethoxy)pyridin-2-yl)ethyl)cyclopropanecarboxamide]",≤ 1
4,"COc1ccc([C@H]2C[C@@H]2C(=O)N[C@H](C)c2ccc(OCC(F)(F)F)cn2)c(F)c1 (relative stereo) [Example 248, (1S*,2S*)-2-(2-fluoro-4-methoxyphenyl)-N-((R)-1-(5-(2,2,2-trifluoroethoxy)pyridin-2-yl)ethyl)cyclopropanecarboxamide]",≤ 1
5,"Cc1cccc([C@H]2C[C@@H]2C(=O)N[C@H](C)c2ccc(OCC(F)(F)F)cn2)c1 (relative stereo) [Example 251, (1S*,2S*)-2-m-tolyl-N-((R)-1-(5-(2,2,2-trifluoroethoxy)pyridin-2-yl)ethyl)cyclopropanecarboxamide]",≤ 1
6,"C[C@@H](NC(=O)[C@H]1C[C@@H]1c1cc(F)cc(F)c1)c1ccc(OCC(F)(F)F)cn1 (relative stereo) [Example 253, (1S*,2S*)-2-(3,5-difluorophenyl)-N-((R)-1-(5-(2,2,2-trifluoroethoxy)pyridin-2-yl)ethyl)cyclopropanecarboxamide]",≤ 1
7,"C[C@@H](NC(=O)[C@H]1C[C@@H]1c1ccc(F)cc1Cl)c1ccc(OCC2CC2)cn1 (relative stereo) [Example 261, (1S*,2S*)-2-(2-chloro-4-fluorophenyl)-N-((R)-1-(5-(cyclopropylmethoxy)pyridin-2-yl)ethyl)cyclopropanecarboxamide]",≤ 1
8,"Cc1cccc([C@H]2C[C@@H]2C(=O)N[C@H](C)c2ccc(OCC3CC3)cn2)c1 (relative stereo) [Example 267, (1S*,2S*)-N-((R)-1-(5-(cyclopropylmethoxy)pyridin-2-yl)ethyl)-2-m-tolylcyclopropanecarboxamide]",≤ 1
9,"C[C@@H](NC(=O)[C@H]1C[C@@H]1c1ccc(F)cc1Cl)c1cnc(OCC(F)(F)F)cn1 (relative stereo) [Example 268, (1S*,2S*)-2-(2-chloro-4-fluorophenyl)-N-((R)-1-(5-(2,2,2-trifluoroethoxy)pyrazin-2-yl)ethyl)cyclopropanecarboxamide]",≤ 1
10,"C[C@@H](NC(=O)[C@@H]1C[C@H]1c1ccc(F)cc1Cl)c1cnc(OCC(F)(F)F)cn1 (relative stereo) [Example 269, (1R*,2R*)-2-(2-chloro-4-fluorophenyl)-N-((R)-1-(5-(2,2,2-trifluoroethoxy)pyrazin-2-yl)ethyl)cyclopropanecarboxamide]",≤ 1
11,"Cc1cccc([C@H]2C[C@@H]2C(=O)N[C@H](C)c2cnc(OCC(F)(F)F)cn2)c1 (relative stereo) [Example 273, (1S*,2S*)-2-m-tolyl-N-((R)-1-(5-(2,2,2-trifluoroethoxy)pyrazin-2-yl)ethyl)cyclopropanecarboxamide]",≤ 1
12,"Cc1cccc([C@@H]2C[C@H]2C(=O)N[C@H](C)c2cnc(OCC(F)(F)F)cn2)c1 (relative stereo) [Example 274, (1R*,2R*)-2-m-tolyl-N-((R)-1-(5-(2,2,2-trifluoroethoxy)pyrazin-2-yl)ethyl)cyclopropanecarboxamide]",≤ 1
13,"C[C@@H](NC(=O)[C@@H]1C[C@H]1c1cccc2[nH]ccc12)c1cnc(OCC(F)(F)F)cn1 (relative stereo) [Example 279, (1R*,2R*)-2-(1H-Indol-4-yl)-N-((R)-1-(5-(2,2,2-trifluoroethoxy)pyrazin-2-yl)ethyl)cyclopropanecarboxamide]",≤ 1
14,"C[C@@H](NC(=O)[C@@H]1C[C@H]1c1ccccc1)c1ccc(OCC(F)(F)F)nc1 (relative stereo) [Example 285, (1R*,2R*)-2-phenyl-N-((R)-1-(6-(2,2,2-trifluoroethoxy)pyridin-3-yl)ethyl)cyclopropanecarboxamide]",≤ 1
15,"C[C@@H](NC(=O)[C@H]1C[C@@H]1COc1cccc(F)c1)c1ccc(OCC(F)(F)F)cn1 (relative stereo) [Example 294, (1S*,2S*)-2-((3-fluorophenoxy)methyl)-N-((R)-1-(5-(2,2,2-trifluoroethoxy)pyridin-2-yl)ethyl)cyclopropanecarboxamide]",≤ 1
16,"C[C@@H](NC(=O)[C@H]1C[C@@H]1c1cccc(OCc2ccccn2)c1)c1ccc(OCC(F)(F)F)cn1 (relative stereo) [Example 306, (1S*,2S*)-2-(3-(pyridin-2-ylmethoxy)phenyl)-N-((R)-1-(5-(2,2,2-trifluoroethoxy)pyridin-2-yl)ethyl)cyclopropanecarboxamide]",≤ 1

row,SMILES,IC50 [µM]
1,"COc1ccc([C@H]2C[C@@H]2C(=O)N[C@H](C)c2ccc(OCC3CC3)cn2)cc1C (relative stereo) [Example 307, (1S*,2S*)-N-((R)-1-(5-(cyclopropyl-methoxy)pyridin-2-yl)ethyl)-2-(4-methoxy-3-methylphenyl) cyclopropanecarboxamide]",≤ 1
2,"COc1ccc([C@@H]2C[C@H]2C(=O)N[C@H](C)c2ccc(OCC3CC3)cn2)cc1C (relative stereo) [Example 308, (1R*,2R*)-N-((R)-1-(5-(cyclopropylmethoxy)pyridin-2-yl)ethyl)-2-(4-methoxy-3-methylphenyl) cyclopropanecarboxamide]",≤ 1
3,"COc1ccc([C@@H]2C[C@H]2C(=O)N[C@H](C)c2cnc(OCC(F)(F)F)cn2)cc1C (relative stereo) [Example 310, (1R*,2R*)-2-(4-methoxy-3-methylphenyl)-N-((R)-1-(5-(2,2,2-trifluoroethoxy)pyrazin-2-yl)ethyl)cyclopropanecarboxamide]",≤ 1
4,"C[C@@H](NC(=O)[C@H]1C[C@@H]1c1cccc2cc[nH]c12)c1ccc(OCC2CC2)cn1 (relative stereo) [Example 316, (1S*,2S*)-N-((R)-1-(5-(cyclopropylmethoxy)pyridin-2-yl)ethyl)-2-(1H-indol-7-yl)cyclopropanecarboxamide]",≤ 1
5,"C[C@@H](NC(=O)[C@@H]1C[C@H]1c1cccc2cc[nH]c12)c1ccc(OCC2CC2)cn1 (relative stereo) [Example 317, (1R*,2R*)-N-((R)-1-(5-(cyclopropylmethoxy)pyridin-2-yl)ethyl)-2-(1H-indol-7-yl)cyclopropanecarboxamide]",≤ 1
6,"C[C@@H](NC(=O)[C@H]1C[C@@H]1COc1ccccc1)c1cnc(OCC(F)(F)F)cn1 (relative stereo) [Example 318, (1S*,2S*)-2-(phenoxymethyl)-N-((R)-1-(5-(2,2,2-trifluoroethoxy)pyrazin-2-yl)ethyl)cyclopropanecarboxamide]",≤ 1
7,"C[C@@H](NC(=O)[C@H]1C[C@@H]1COc1ccccc1)c1ccc(OCC(F)(F)F)nc1 (relative stereo) [Example 320, (1S*,2S*)-2-(phenoxymethyl)-N-((R)-1-(6-(2,2,2-trifluoroethoxy)pyridin-3-yl)ethyl)cyclopropanecarboxamide]",≤ 1
8,"C[C@@H](NC(=O)[C@@H]1C[C@H]1COc1ccccc1)c1ccc(OCC(F)(F)F)nc1 (relative stereo) [Example 321, (1R*,2R*)-2-(phenoxymethyl)-N-((R)-1-(6-(2,2,2-trifluoroethoxy)pyridin-3-yl)ethyl)cyclopropanecarboxamide]",≤ 1
9,"C[C@@H](NC(=O)[C@H]1C[C@@H]1c1cccc2cc[nH]c12)c1cnc(OCC(F)(F)F)cn1 (relative stereo) [Example 322, (1S*,2S*)-2-(1H-indol-7-yl)-N-((R)-1-(5-(2,2,2-trifluoroethoxy)pyrazin-2-yl)ethyl)cyclopropanecarboxamide]",≤ 1
10,"C[C@@H](NC(=O)[C@@H]1C[C@H]1c1cccc2cc[nH]c12)c1cnc(OCC(F)(F)F)cn1 (relative stereo) [Example 323, (1R*,2R*)-2-(1H-indol-7-yl)-N-((R)-1-(5-(2,2,2-trifluoroethoxy)pyrazin-2-yl)ethyl)cyclopropanecarboxamide]",≤ 1
11,"C[C@@H](NC(=O)[C@H]1C[C@@H]1c1ccc2ccccc2n1)c1ccc(OCC(F)(F)F)cn1 (relative stereo) [Example 324, (1S*,2S*)-2-(quinolin-2-yl)-N-((R)-1-(5-(2,2,2-trifluoroethoxy)pyridin-2-yl)ethyl)cyclopropanecarboxamide]",≤ 1
12,"C[C@@H](NC(=O)[C@@H]1C[C@H]1c1ccc2ccccc2n1)c1ccc(OCC(F)(F)F)cn1 (relative stereo) [Example 325, (1R*,2R*)-2-(quinolin-2-yl)-N-((R)-1-(5-(2,2,2-trifluoroethoxy)pyridin-2-yl)ethyl)cyclopropanecarboxamide]",≤ 1
13,"Cc1cccc([C@@H]2C[C@H]2C(=O)N[C@H](C)c2ccc(OCC3CC3)cn2)c1 (relative stereo) [Example 326, (1R*,2R*)-N-((R)-1-(5-(cyclopropyl-methoxy)pyridin-2-yl)ethyl)-2-m-tolylcyclopropanecarboxamide]",≤ 1
14,"C[C@@H](NC(=O)[C@H]1C[C@@H]1c1cc(F)ccc1F)c1ccc(OCC(F)(F)F)cn1 (relative stereo) [Example 327, (1S*,2S*)-2-(2,5-difluorophenyl)-N-((R)-1-(5-(2,2,2-trifluoroethoxy)pyridin-2-yl)ethyl)cyclopropanecarboxamide]",≤ 1
15,"C[C@@H](NC(=O)[C@@H]1C[C@H]1c1cc(F)ccc1F)c1ccc(OCC(F)(F)F)cn1 (relative stereo) [Example 328, (1R*,2R*)-2-(2,5-difluorophenyl)-N-((R)-1-(5-(2,2,2-trifluoroethoxy)pyridin-2-yl)ethyl)cyclopropanecarboxamide]",≤ 1

# Source: patent publication US9101616B2, “Aryl substituted carboxamide derivatives as calcium or sodium channel blockers” (RaQualia Pharma Inc., priority 2009, dated 2015)
